These are yes or no findings as the source states them, for the method shown. Some binding calls cover weakened binding; strength is not graded here.
Tests used:
Test in all cases: flow cytometry, Hek-293T cells expressing the mutant
[1] = target: T1, human CD39 mutant 1 (human) (UniProt P49961)
T1 sequence: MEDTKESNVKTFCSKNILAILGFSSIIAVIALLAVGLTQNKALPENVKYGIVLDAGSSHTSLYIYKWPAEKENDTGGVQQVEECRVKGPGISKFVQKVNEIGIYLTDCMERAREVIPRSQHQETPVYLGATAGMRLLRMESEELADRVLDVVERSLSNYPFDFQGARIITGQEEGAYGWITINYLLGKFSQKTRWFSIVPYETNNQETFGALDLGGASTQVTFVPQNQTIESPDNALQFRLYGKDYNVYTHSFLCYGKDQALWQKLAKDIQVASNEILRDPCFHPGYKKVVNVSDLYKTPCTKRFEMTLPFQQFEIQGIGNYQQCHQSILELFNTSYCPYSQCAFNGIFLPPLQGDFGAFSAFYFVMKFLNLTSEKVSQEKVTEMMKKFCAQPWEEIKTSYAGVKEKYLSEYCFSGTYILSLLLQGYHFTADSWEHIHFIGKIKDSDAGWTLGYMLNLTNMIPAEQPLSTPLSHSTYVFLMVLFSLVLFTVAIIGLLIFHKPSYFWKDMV

[2] = target: T2, human CD39 mutant 10B (human) (UniProt P49961)
T2 sequence: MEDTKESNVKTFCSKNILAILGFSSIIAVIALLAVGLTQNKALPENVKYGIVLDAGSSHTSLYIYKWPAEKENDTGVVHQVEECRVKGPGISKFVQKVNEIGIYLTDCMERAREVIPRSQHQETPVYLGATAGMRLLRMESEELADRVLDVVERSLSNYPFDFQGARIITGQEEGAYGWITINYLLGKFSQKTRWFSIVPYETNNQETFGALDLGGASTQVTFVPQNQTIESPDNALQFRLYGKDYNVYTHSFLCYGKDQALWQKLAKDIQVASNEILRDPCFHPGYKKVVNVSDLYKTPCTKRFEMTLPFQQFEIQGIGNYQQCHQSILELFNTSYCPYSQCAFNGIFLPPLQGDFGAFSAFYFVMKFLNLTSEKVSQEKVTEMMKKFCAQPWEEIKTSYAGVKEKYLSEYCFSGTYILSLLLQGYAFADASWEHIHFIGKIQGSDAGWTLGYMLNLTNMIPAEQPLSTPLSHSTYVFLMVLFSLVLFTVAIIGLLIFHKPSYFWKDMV

[3] = target: T3, human CD39 mutant 16 (human) (UniProt P49961)
T3 sequence: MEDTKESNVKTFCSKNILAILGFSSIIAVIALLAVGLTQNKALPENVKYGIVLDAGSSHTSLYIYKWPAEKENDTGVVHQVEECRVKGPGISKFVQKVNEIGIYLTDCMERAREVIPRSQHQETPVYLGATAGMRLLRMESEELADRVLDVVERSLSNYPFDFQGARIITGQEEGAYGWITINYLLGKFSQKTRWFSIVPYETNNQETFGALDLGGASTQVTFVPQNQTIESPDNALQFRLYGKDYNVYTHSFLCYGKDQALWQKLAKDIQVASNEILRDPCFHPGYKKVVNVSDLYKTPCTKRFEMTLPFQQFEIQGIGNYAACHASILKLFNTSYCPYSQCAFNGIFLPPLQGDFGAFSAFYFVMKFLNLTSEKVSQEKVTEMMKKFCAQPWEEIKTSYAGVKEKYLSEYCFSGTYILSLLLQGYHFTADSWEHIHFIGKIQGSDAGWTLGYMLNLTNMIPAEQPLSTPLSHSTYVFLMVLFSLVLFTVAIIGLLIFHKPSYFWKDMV

[4] = target: T4, human CD39 mutant 2A (human) (UniProt P49961)
T4 sequence: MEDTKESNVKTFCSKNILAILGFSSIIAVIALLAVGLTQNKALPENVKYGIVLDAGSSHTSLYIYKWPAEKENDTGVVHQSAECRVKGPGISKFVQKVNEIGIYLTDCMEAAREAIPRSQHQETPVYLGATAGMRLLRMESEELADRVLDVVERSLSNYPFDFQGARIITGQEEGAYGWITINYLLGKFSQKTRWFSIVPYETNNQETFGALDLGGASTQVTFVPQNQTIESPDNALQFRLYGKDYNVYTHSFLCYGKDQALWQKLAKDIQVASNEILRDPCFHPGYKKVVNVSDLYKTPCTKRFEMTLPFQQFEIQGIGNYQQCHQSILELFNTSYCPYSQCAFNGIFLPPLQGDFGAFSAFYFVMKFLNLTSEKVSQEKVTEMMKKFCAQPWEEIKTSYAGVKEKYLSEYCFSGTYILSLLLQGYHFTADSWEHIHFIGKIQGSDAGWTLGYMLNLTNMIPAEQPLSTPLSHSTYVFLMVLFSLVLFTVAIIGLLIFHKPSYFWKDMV

[5] = target: T5, human CD39 mutant 8 (human) (UniProt P49961)
T5 sequence: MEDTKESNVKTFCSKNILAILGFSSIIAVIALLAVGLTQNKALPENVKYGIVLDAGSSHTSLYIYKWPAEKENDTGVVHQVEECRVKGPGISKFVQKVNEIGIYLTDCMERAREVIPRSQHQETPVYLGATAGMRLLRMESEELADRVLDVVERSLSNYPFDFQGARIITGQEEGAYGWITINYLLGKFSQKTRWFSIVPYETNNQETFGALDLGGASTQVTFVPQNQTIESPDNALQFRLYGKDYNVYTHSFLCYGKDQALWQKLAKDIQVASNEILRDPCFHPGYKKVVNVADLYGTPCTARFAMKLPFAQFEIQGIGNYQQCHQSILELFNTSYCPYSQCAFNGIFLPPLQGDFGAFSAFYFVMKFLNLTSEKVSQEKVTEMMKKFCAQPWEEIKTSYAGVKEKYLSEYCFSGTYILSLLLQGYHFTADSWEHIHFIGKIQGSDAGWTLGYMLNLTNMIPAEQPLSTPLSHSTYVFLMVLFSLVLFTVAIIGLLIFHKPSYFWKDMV

Measured: binding

B1: antibody I-399 (antibody, V domains shown)
VH: PVQLQQPGAEVVMPGASVKLSCKASGYTFTSFWMNWMRQRPGQGLEWIGEIDPSDFYTNSNQRFKGKATLTVDKSSSTAYMQLSSLTSEDSAVYFCARGDFGWYFDVWGTGTSVTVSS
VL: EIVLTQSPTTMTSSPGEKITFTCSASSSINSNYLHWYQQKPGFSPKLLIYRTSNLASGVPTRFSGSGSGTSYSLTIGTMEAEDVATYYCQQGSSLPRTFGGGTKLEIK
binds: all assays above
